Laboratory results from patent US20100167931A1, “HETEROCYCLICALLY SUBSTITUTED HETEROCYCLYLCARBOXYLIC ACID DERIVATIVES” (Bayer CropScience AG, priority 2007, published 2010).
Some results were stated once for a whole list of compounds, not compound by compound.

Experiments:
Assay type in all cases: in vivo
[1] = system: green peach aphid (Myzus persicae); test: Myzus test (spray treatment); conditions: application rate of 500 g/ha, chinese cabbage discs
[2] = system: greenhouse red spider mite (Tetranychus urticae); test: Tetranychus test, OP-resistant (spray treatment); conditions: application rate of 500 g/ha, bean leaf discs
Puccinia recondita = test: Puccinia test (wheat)/protective; conditions: concentration of 500 ppm, protective, evaluation 8-10 days after inoculation
Botrytis cinerea = test: Botrytis test (cucumber)/protective; conditions: concentration of 500 ppm, protective, evaluation 5-6 days after inoculation
[3] = system: larvae of the mustard beetle (Phaedon cochleariae); test: Phaedon test (spray treatment); conditions: application rate of 500 g/ha, chinese cabbage discs
Lucilia cuprina larvae = test: Lucilia cuprina test; conditions: application rate of 100 ppm

Structure (SMILES)	efficacy (aphids killed) [1] [%]	efficacy (spider mites killed) [2] [%]	effectiveness (Puccinia recondita) [%]	effectiveness (Botrytis cinerea) [%]	efficacy (beetle larvae killed) [3] [%]	efficacy (kill of larvae) (Lucilia cuprina larvae) [%]
CC(C)Nc1c(-c2ccccn2)c(Cl)nc2c(C(=O)NS(C)(=O)=O)cnn12 [Example I-29]	≥ 80	≥ 80				
CC(C)Nc1c(-c2ncccc2Cl)c(Cl)nc2c(C(=O)NS(C)(=O)=O)cnn12 [Example I-32]	≥ 80	≥ 80	≥ 70	≥ 70	≥ 80	
CCS(=O)(=O)NC(=O)c1cnn2c(NC(C)C)c(-c3ncc(F)cc3F)c(Cl)nc12 [Example I-38]	≥ 80	≥ 80		≥ 70	≥ 80	
Cc1nc(-c2c(Cl)nc3c(C(=O)NS(C)(=O)=O)cnn3c2NCC(F)(F)F)c(C)s1 [Example I-49]	≥ 80	≥ 80				
CC(C)Nc1c(-c2ncc(F)cc2F)c(Cl)nc2c(C(=O)NS(=O)(=O)Cc3ccc(Cl)nc3)cnn12 [Example I-51]	≥ 80	≥ 80			≥ 80	
CC(C)Nc1c(-c2c(Cl)cncc2Cl)c(Cl)nc2c(C(=O)NS(C)(=O)=O)cnn12 [Example I-19]	≥ 80	≥ 80			≥ 80	≥ 80
CC(C)Nc1c(-c2ncc(F)cc2F)c(Cl)nc2c(C(=O)NS(=O)(=O)C(F)F)cnn12 [Example I-40]	≥ 80	≥ 80				
Cc1nn(C)c(-c2c(Cl)nc3c(C(=O)NS(C)(=O)=O)cnn3c2NC(C)C)c1Cl [Example I-56]		≥ 80				
